In US6555347 (University of California, dated 2003):
No constants are given. Whether binding was seen depends on the method and setting. Some entries that bind do so weakly or less than the wild type.

Amino acid sequences for entries named in this document (tags omitted). Residues count along the entry.
UniProt Q62667, residues 68-861: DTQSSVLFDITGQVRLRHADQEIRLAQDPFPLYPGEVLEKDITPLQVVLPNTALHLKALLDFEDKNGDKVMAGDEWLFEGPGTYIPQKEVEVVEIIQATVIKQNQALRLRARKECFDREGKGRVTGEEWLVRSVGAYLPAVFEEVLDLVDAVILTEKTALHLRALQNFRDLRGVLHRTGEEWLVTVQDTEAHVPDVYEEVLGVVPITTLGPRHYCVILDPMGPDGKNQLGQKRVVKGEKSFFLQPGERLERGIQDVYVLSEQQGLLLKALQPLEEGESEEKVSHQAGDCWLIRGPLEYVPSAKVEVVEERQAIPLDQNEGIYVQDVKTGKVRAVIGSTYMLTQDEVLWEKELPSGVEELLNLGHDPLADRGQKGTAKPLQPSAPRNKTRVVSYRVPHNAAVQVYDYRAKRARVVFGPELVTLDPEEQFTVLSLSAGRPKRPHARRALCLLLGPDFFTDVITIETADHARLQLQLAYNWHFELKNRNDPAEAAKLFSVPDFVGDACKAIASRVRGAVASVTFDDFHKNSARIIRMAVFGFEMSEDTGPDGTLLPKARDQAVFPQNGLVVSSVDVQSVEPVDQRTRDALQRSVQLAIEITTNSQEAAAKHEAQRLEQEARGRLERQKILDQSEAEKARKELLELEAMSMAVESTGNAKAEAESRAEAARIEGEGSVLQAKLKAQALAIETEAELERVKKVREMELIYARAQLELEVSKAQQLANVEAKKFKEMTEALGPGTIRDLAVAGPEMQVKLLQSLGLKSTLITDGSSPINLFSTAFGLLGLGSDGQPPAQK

Biological target: rat major vault protein having the 67 amino acids at the amino-terminal truncated (rat) (UniProt Q62667)
Experiment: yeast two-hybrid (interaction trap), blue colonies on galactose/X-gal media

binding: binds
B1: human minor vault protein p193 (other)
chain: VCTQHWQDAVPWTELLSLQTEDGFWKLTPELGLILNLNTNGLHSFLKQKGIQSLGVKGRECLLDLIATMLVLQFIRTRLEKEGIVFKSLMKMDDPSISRNIPWAFEAIKQASEWVRRTEGQYPSICPRLELGNDWDSATKQLLGLQPISTVSPLHRVLHYSQG
notes: In the two-hybrid screen, p193 was a clone from a HeLa acid fusion cDNA library; In the western blots, immunofluorescence and immunoprecipitation, the form of p193 is not described; also called 193 kDa minor vault protein; human vault protein p193
